Assay results from PubChem BioAssay AID248 (DTP/NCI, 2004).
The list shows only some results of the screen, not a fair sample: it gathers some chemical classes. Not every dose and run of a compound is shown. T/C gives the treated animals as a percentage of the vehicle group. Some doses have a count of surviving animals in place of a T/C: the source files T/C as zero there, which appears to mark a toxic dose or a test without result, not a measured value. Counts of survivors are from the toxicity check (mostly the fifth day) where no day follows; animals may have died later. Schedules are NCI's codes, taken here to give the interval after Q, in days (D) or hours (H), and the number of doses after X. Where survival is the endpoint, the PubChem record calls one and a half times the control and up active, and a quarter to a half above the control has no call in these data; cut-offs in other NCI protocols can differ. Some entries hold several experiments; their values stand side by side, smallest first. Some T/C values carry the count of animals alive at the toxicity check (mostly the fifth day); without a count or a note in brackets, all were alive then.

Tested on: L1210 leukemia ip in BDF1 mice, survival T/C
Experiment: NCI In Vivo Anticancer Drug Screen. Data for tumor model L1210 Leukemia (intraperitoneal) in B6D2F1 (BDF1) mice
Conditions: higher T/C = longer survival

`COc1ccc(O)c2c(=O)c3c(OC)cc4c(c3oc12)[C@@H]1C=CO[C@@H]1O4` was tested, and the T/C (T/C endpoint: mean survival time, dose: 2.0 mg/kg/injection, schedule: Q03HX008 (ip), vehicle: Klucel (hydroxypropylcellulose) (HPC)) was 116 % of control, the T/C (T/C endpoint: mean survival time, dose: 2.66 mg/kg/injection, schedule: Q01DX009 (ip), vehicle: saline with Tween-80) was 116 % of control and the T/C (T/C endpoint: mean survival time, dose: 4.0 mg/kg/injection, schedule: Q01DX009 (ip), vehicle: saline with Tween-80) was 121 % of control. For the same compound, the T/C (T/C endpoint: mean survival time, dose: 4.0 mg/kg/injection, schedule: Q03HX008 (ip), vehicle: Klucel (hydroxypropylcellulose) (HPC)) was 135 % of control, the T/C (T/C endpoint: mean survival time, dose: 4.0 mg/kg/injection, schedule: Q03HX016 (ip), vehicle: Klucel (hydroxypropylcellulose) (HPC)) was 125 % of control and the T/C (T/C endpoint: mean survival time, dose: 6.0 mg/kg/injection, schedule: Q01DX009 (ip), vehicle: saline with Tween-80) was 121 % of control. The T/C (T/C endpoint: mean survival time, dose: 8.0 mg/kg/injection, schedule: Q03HX008 (ip), vehicle: Klucel (hydroxypropylcellulose) (HPC)) was 142 % of control, the T/C (T/C endpoint: mean survival time, dose: 8.0 mg/kg/injection, schedule: Q03HX016 (ip), vehicle: Klucel (hydroxypropylcellulose) (HPC)) was 196 % of control and the T/C (T/C endpoint: mean survival time, dose: 8.9 mg/kg/injection, schedule: Q01DX009 (ip), vehicle: saline with Tween-80) was 126 % of control. For the same compound, the T/C (T/C endpoint: mean survival time, dose: 9.0 mg/kg/injection, schedule: Q01DX009 (ip), vehicle: saline with Tween-80) was 133 % of control, the T/C (T/C endpoint: mean survival time, dose: 10.0 mg/kg/injection, schedule: Q01DX009 (ip), vehicle: Klucel (hydroxypropylcellulose) (HPC)) was 108 % of control and the T/C (T/C endpoint: mean survival time, dose: 13.3 mg/kg/injection, schedule: Q01DX009 (ip), vehicle: saline with Tween-80) was 132 % of control. For the same compound, the T/C (T/C endpoint: mean survival time, dose: 14.0 mg/kg/injection, schedule: Q01DX009 (ip), vehicle: Klucel (hydroxypropylcellulose) (HPC)) was 138 % of control, the T/C (T/C endpoint: mean survival time, dose: 16.0 mg/kg/injection, schedule: Q03HX008 (ip), vehicle: Klucel (hydroxypropylcellulose) (HPC)) was 155 % of control and the T/C (T/C endpoint: mean survival time, dose: 16.0 mg/kg/injection, schedule: Q03HX016 (ip), vehicle: Klucel (hydroxypropylcellulose) (HPC)) was 174 % of control. The T/C (T/C endpoint: mean survival time, dose: 16.0 mg/kg/injection, schedule: Q04DX003 (ip), vehicle: Klucel (hydroxypropylcellulose) (HPC)) was 141 % of control, the T/C (T/C endpoint: mean survival time, dose: 20.0 mg/kg/injection, schedule: Q01DX009 (ip), vehicle: Klucel (hydroxypropylcellulose) (HPC)) was 150 % of control and the T/C (T/C endpoint: mean survival time, dose: 20.0 mg/kg/injection, schedule: Q01DX009 (ip), vehicle: saline with Tween-80) was 148 % of control. The T/C (T/C endpoint: mean survival time, dose: 22.0 mg/kg/injection, schedule: Q01DX009 (ip), vehicle: saline with Tween-80) was 153 % of control, the T/C (T/C endpoint: mean survival time, dose: 30.0 mg/kg/injection, schedule: Q01DX009 (ip), vehicle: Klucel (hydroxypropylcellulose) (HPC)) was 146 % of control and the T/C (T/C endpoint: mean survival time, dose: 30.0 mg/kg/injection, schedule: Q01DX009 (ip), vehicle: saline with Tween-80) was 152 % of control. The T/C (T/C endpoint: mean survival time, dose: 32.0 mg/kg/injection, schedule: Q01DX001 (ip), vehicle: Klucel (hydroxypropylcellulose) (HPC)) was 125 % of control, the T/C (T/C endpoint: mean survival time, dose: 32.0 mg/kg/injection, schedule: Q01DX009 (oral), vehicle: Klucel (hydroxypropylcellulose) (HPC)) was 118 % of control and the survivor count (T/C endpoint: mean survival time, dose: 32.0 mg/kg/injection, schedule: Q03HX008 (ip), vehicle: Klucel (hydroxypropylcellulose) (HPC)) was 3 of 6. For the same compound, the survivor count (T/C endpoint: mean survival time, dose: 32.0 mg/kg/injection, schedule: Q03HX016 (ip), vehicle: Klucel (hydroxypropylcellulose) (HPC)) was 1 of 6, the T/C (T/C endpoint: mean survival time, dose: 32.0 mg/kg/injection, schedule: Q04DX003 (ip), vehicle: Klucel (hydroxypropylcellulose) (HPC)) was 166 % of control and the T/C (T/C endpoint: mean survival time, dose: 32.0 mg/kg/injection, schedule: Q08DX002 (ip), vehicle: Klucel (hydroxypropylcellulose) (HPC)) was 138 % of control. For the same compound, the T/C (T/C endpoint: mean survival time, dose: 33.0 mg/kg/injection, schedule: Q01DX009 (ip), vehicle: saline with Tween-80) was 157 % of control, the T/C (T/C endpoint: mean survival time, dose: 44.0 mg/kg/injection, schedule: Q01DX009 (ip), vehicle: Klucel (hydroxypropylcellulose) (HPC)) was 166 % of control and the T/C (T/C endpoint: mean survival time, dose: 50.0 mg/kg/injection, schedule: Q01DX009 (ip), vehicle: saline with Tween-80) was 159 % of control. For the same compound, the T/C (T/C endpoint: mean survival time, dose: 64.0 mg/kg/injection, schedule: Q01DX001 (ip), vehicle: Klucel (hydroxypropylcellulose) (HPC)) was 146 % of control, the T/C (T/C endpoint: mean survival time, dose: 64.0 mg/kg/injection, schedule: Q01DX009 (oral), vehicle: Klucel (hydroxypropylcellulose) (HPC)) was 128 % of control [5 of 6 alive] and the survivor count (T/C endpoint: mean survival time, dose: 64.0 mg/kg/injection, schedule: Q03HX016 (ip), vehicle: Klucel (hydroxypropylcellulose) (HPC)) was 0 of 6. The T/C (T/C endpoint: mean survival time, dose: 64.0 mg/kg/injection, schedule: Q04DX003 (ip), vehicle: Klucel (hydroxypropylcellulose) (HPC)) was 180 % of control, the T/C (T/C endpoint: mean survival time, dose: 64.0 mg/kg/injection, schedule: Q08DX002 (ip), vehicle: Klucel (hydroxypropylcellulose) (HPC)) was 164 % of control and the T/C (T/C endpoint: mean survival time, dose: 66.0 mg/kg/injection, schedule: Q01DX009 (ip), vehicle: Klucel (hydroxypropylcellulose) (HPC)) was 102 % of control. For the same compound, the T/C (T/C endpoint: mean survival time, dose: 75.0 mg/kg/injection, schedule: Q01DX009 (ip), vehicle: saline with Tween-80) was 168 % of control, the T/C (T/C endpoint: mean survival time, dose: 100.0 mg/kg/injection, schedule: Q01DX009 (ip), vehicle: Klucel (hydroxypropylcellulose) (HPC)) was 88 % of control [5 of 6 alive] and the T/C (T/C endpoint: mean survival time, dose: 128.0 mg/kg/injection, schedule: Q01DX001 (ip), vehicle: Klucel (hydroxypropylcellulose) (HPC)) was 158 % of control. For the same compound, the T/C (T/C endpoint: mean survival time, dose: 128.0 mg/kg/injection, schedule: Q01DX009 (oral), vehicle: Klucel (hydroxypropylcellulose) (HPC)) was 124 % of control [5 of 6 alive], the T/C (T/C endpoint: mean survival time, dose: 128.0 mg/kg/injection, schedule: Q04DX003 (ip), vehicle: Klucel (hydroxypropylcellulose) (HPC)) was 166 % of control and the T/C (T/C endpoint: mean survival time, dose: 128.0 mg/kg/injection, schedule: Q08DX002 (ip), vehicle: Klucel (hydroxypropylcellulose) (HPC)) was 177 % of control. The T/C (T/C endpoint: mean survival time, dose: 256.0 mg/kg/injection, schedule: Q01DX001 (ip), vehicle: Klucel (hydroxypropylcellulose) (HPC)) was 160 % of control [5 of 6 alive], the T/C (T/C endpoint: mean survival time, dose: 256.0 mg/kg/injection, schedule: Q01DX009 (oral), vehicle: Klucel (hydroxypropylcellulose) (HPC)) was 131 % of control and the T/C (T/C endpoint: mean survival time, dose: 256.0 mg/kg/injection, schedule: Q04DX003 (ip), vehicle: Klucel (hydroxypropylcellulose) (HPC)) was 103 % of control. For the same compound, the T/C (T/C endpoint: mean survival time, dose: 256.0 mg/kg/injection, schedule: Q08DX002 (ip), vehicle: Klucel (hydroxypropylcellulose) (HPC)) was 122 % of control [4 of 6 alive], the T/C (T/C endpoint: mean survival time, dose: 512.0 mg/kg/injection, schedule: Q01DX001 (ip), vehicle: Klucel (hydroxypropylcellulose) (HPC)) was 172 % of control [4 of 6 alive] and the survivor count (T/C endpoint: mean survival time, dose: 512.0 mg/kg/injection, schedule: Q01DX009 (oral), vehicle: Klucel (hydroxypropylcellulose) (HPC)) was 0 of 6. The survivor count (T/C endpoint: mean survival time, dose: 512.0 mg/kg/injection, schedule: Q08DX002 (ip), vehicle: Klucel (hydroxypropylcellulose) (HPC)) was 2 of 6, the T/C (T/C endpoint: median survival time, dose: 2.0 mg/kg/injection, schedule: Q01DX009 (ip), vehicle: saline) was 110 and 114 % of control and the T/C (T/C endpoint: median survival time, dose: 2.0 mg/kg/injection, schedule: Q03HX024 (ip), vehicle: saline) was 125 % of control. For the same compound, the T/C (T/C endpoint: median survival time, dose: 4.0 mg/kg/injection, schedule: Q01DX009 (ip), vehicle: saline, evaluated on day 30) was 121 and 131 % of control, the T/C (T/C endpoint: median survival time, dose: 4.0 mg/kg/injection, schedule: Q01DX009 (ip), vehicle: saline, evaluated on day 60) was 122 % of control and the T/C (T/C endpoint: median survival time, dose: 4.0 mg/kg/injection, schedule: Q01DX009 (sc), vehicle: saline) was 98 % of control [9 of 10 alive]. The T/C (T/C endpoint: median survival time, dose: 4.0 mg/kg/injection, schedule: Q03HX008 (ip), vehicle: saline) was 114 % of control.
